This is an account of results in PMC9048411.

One series has as its target TDP-43 WT (UniProt Q13148). The series can be described thus: phase separation microscopy and FRAP. As to conditions: called non-binding RNA, no effect on condensates vs no RNA, 4 uM each, 150 mM NaCl pH 7.5, RNA unlabeled; recombinant protein; residues 1-414.
For series [1], the target named is TDP-43 F4L F147L,F149L,F229L,F231L (UniProt Q13148). Nature of the series: fluorescence anisotropy. As to conditions: not determined up to 2 uM, could not be determined because contacts are greatly disrupted; Fluorescence anisotropy: 10 mM Tris pH 8.0, 300 mM NaCl, 5% glycerol, 5% sucrose, 0.5 mM TCEP, 100 nM 3'-FITC CLIP34, 0-2 uM protein, temperature not stated; recombinant protein; residues 1-414; label: 3' FITC. (In fluorescence polarisation assays a small probe gives low polarisation when free and higher when bound to something large.)

For some assays here: A negative result means that nothing was seen under these conditions. At least one verdict was read from the data and is not stated in words by the source. For some assays here: For at least one entry, the source does not settle the construct or the ends of the probe. For some assays here: The comparison behind a weaker result is the experiment's own reference, which may not be listed here.

Regarding “ACACACACACACACACACACACACACACACACACACA [A(CA)18]”, the binding result in the series with TDP-43 WT is listed as “no binding”.

With “GAGAGAGCGCGUGCAGAGACUUGGUGGUGCAUAA [CLIP34]”, in series [1], the binding result is on record as “binds more weakly”.
